# Assay results reported in the supplement of paper PMC8728848.
# The list shows a part of the results.
# B1: cFel (Cyprinus carpio), P68512 (protein)
# chain: LDCTVIDGNLKQIDAGSGSVVGVNNLNETFVLIDNVFTKISGSLKHFSVGPAGQLGVNTANNIFKYQSGGFVQLAGLLKQVDAGGDQIIAGVNMYDDIYCLNMDANNKWPSSNTPWVQINGKLKYYSCGPYSCWGVNSNDQIFIMKDVSSNVCSGSGSFINIPGLLSMIEVATDGSVFGVNSQGNLYQRTGVTRSKPDGTDWISMVACPNGHKHVSFDLGVLWLVCVDGSIRKCILTD
# Tests used:
# Assay in all cases: glycan array binding signal (z-score within array); higher = stronger binding
# Conditions in all cases: glycan notation: IUPAC condensed, linker removed
# [1] = target: GlcNAc(b1-4)GlcNAc(b1-4)GlcNAc(b1-4)GlcNAc(b1-4)GlcNAc
# Outline: (§1)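 Negative Z-scores can be read as non-binding. The Z-score is calculated within each array and then averaged across arrays of one protein sequence at different concentrations or buffers and across linkers. Arrays, 3228 in all, were curated from the Consortium for Functional Glycomics database and kept only where the protein sequence was available.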
# [2] = target: GlcNAc(b1-4)GlcNAc(b1-4)GlcNAc(b1-4)GlcNAc(b1-4)GlcNAc(b1-4)GlcNAc
# Outline: as §1
# [3] = target: GlcNAc(b1-4)[GlcNAc(b1-6)]GalNAc
# Outline: as §1
# [4] = target: GlcNAc(b1-6)Gal(b1-4)GlcNAc
# Outline: as §1
# GlcNAc(b1-6)GalNAc = target: GlcNAc(b1-6)GalNAc
# Outline: as §1
# [5] = target: GlcNAc6S(b1-3)Gal(b1-4)GlcNAc
# Outline: as §1
# Kdn(a2-3)Gal(b1-3)GalNAc = target: Kdn(a2-3)Gal(b1-3)GalNAc
# Outline: as §1
# Kdn(a2-3)Gal(b1-3)GlcNAc = target: Kdn(a2-3)Gal(b1-3)GlcNAc
# Outline: as §1
# Kdn(a2-3)Gal(b1-4)Glc = target: Kdn(a2-3)Gal(b1-4)Glc
# Outline: as §1
# Kdn(a2-3)Gal(b1-4)GlcNAc = target: Kdn(a2-3)Gal(b1-4)GlcNAc
# Outline: as §1
# [6] = target: Kdn(a2-3)Gal(b1-4)[Fuc(a1-3)]GlcNAc
# Outline: as §1
# Kdn(a2-6)Gal(b1-4)GlcNAc = target: Kdn(a2-6)Gal(b1-4)GlcNAc
# Outline: as §1
# [7] = target: Man(a1-2)Man(a1-2)Man(a1-3)Man
# Outline: as §1
# [8] = target: Man(a1-2)Man(a1-2)Man(a1-6)[Man(a1-3)]Man
# Outline: as §1
# Man(a1-2)Man(a1-3)Man = target: Man(a1-2)Man(a1-3)Man
# Outline: as §1
# [9] = target: Man(a1-2)Man(a1-3)[Man(a1-2)Man(a1-6)]Man
# Outline: as §1
# [10] = target: Man(a1-2)Man(a1-3)[Man(a1-2)Man(a1-6)]Man(a1-6)[Man(a1-2)Man(a1-2)Man(a1-3)]Man
# Outline: as §1
# [11] = target: Man(a1-2)Man(a1-3)[Man(a1-2)Man(a1-6)]Man(a1-6)[Man(a1-2)Man(a1-2)Man(a1-3)]Man(b1-4)GlcNAc(b1-4)GlcNAc
# Outline: as §1
# [12] = target: Man(a1-2)Man(a1-3)[Man(a1-6)]Man(a1-6)[Man(a1-2)Man(a1-3)]Man(b1-4)GlcNAc(b1-4)GlcNAc
# Outline: as §1
# [13] = target: Man(a1-2)Man(a1-6)[Man(a1-3)]Man(a1-6)[Man(a1-2)Man(a1-2)Man(a1-3)]Man
# Outline: as §1
# [14] = target: Man(a1-2)Man(a1-6)[Man(a1-3)]Man(a1-6)[Man(a1-2)Man(a1-2)Man(a1-3)]Man(b1-4)GlcNAc(b1-4)GlcNAc
# Outline: as §1
# Man(a1-3)[Man(a1-6)]Man = target: Man(a1-3)[Man(a1-6)]Man
# Outline: as §1
# [15] = target: Man(a1-3)[Man(a1-6)]Man(a1-6)[Man(a1-2)Man(a1-3)]Man(b1-4)GlcNAc(b1-4)GlcNAc
# Outline: as §1
# [16] = target: Man(a1-3)[Man(a1-6)]Man(a1-6)[Man(a1-3)]Man
# Outline: as §1
# [17] = target: Man(a1-3)[Man(a1-6)]Man(a1-6)[Man(a1-3)]Man(b1-4)GlcNAc(b1-4)GlcNAc
# Outline: as §1
# [18] = target: Man(a1-3)[Man(a1-6)]Man(b1-4)GlcNAc(b1-4)GlcNAc
# Outline: as §1
# [19] = target: Man(a1-3)[Man(a1-6)]Man(b1-4)GlcNAc(b1-4)[Fuc(a1-6)]GlcNAc
# Outline: as §1
# Man(a1-6)Man = target: Man(a1-6)Man
# Outline: as §1
# Man(b1-4)GlcNAc = target: Man(b1-4)GlcNAc
# Outline: as §1
# MurNAc(b1-4)GlcNAc = target: MurNAc(b1-4)GlcNAc
# Outline: as §1
# Neu5Ac(a2-3)Gal = target: Neu5Ac(a2-3)Gal
# Outline: as §1
# [20] = target: Neu5Ac(a2-3)Gal(b1-3)GalNAc
# Outline: as §1
# [21] = target: Neu5Ac(a2-3)Gal(b1-3)GalNAc(b1-3)Gal(a1-4)Gal(b1-4)Glc
# Outline: as §1
# [22] = target: Neu5Ac(a2-3)Gal(b1-3)GalNAc(b1-4)Gal(b1-4)Glc
# Outline: as §1
# [23] = target: Neu5Ac(a2-3)Gal(b1-3)GalNAc(b1-4)[Neu5Ac(a2-3)]Gal(b1-4)Glc
# Outline: as §1
# [24] = target: Neu5Ac(a2-3)Gal(b1-3)GalNAc(b1-4)[Neu5Ac(a2-8)Neu5Ac(a2-3)]Gal(b1-4)Glc
# Outline: as §1
# [25] = target: Neu5Ac(a2-3)Gal(b1-3)GalNAc6S
# Outline: as §1
# [26] = target: Neu5Ac(a2-3)Gal(b1-3)GlcNAc
# Outline: as §1
# [27] = target: Neu5Ac(a2-3)Gal(b1-3)GlcNAc(b1-2)Man
# Outline: as §1
# [28] = target: Neu5Ac(a2-3)Gal(b1-3)GlcNAc(b1-2)Man(a1-3)[GlcNAc(b1-4)][Neu5Ac(a2-3)Gal(b1-3)GlcNAc(b1-2)Man(a1-6)]Man(b1-4)GlcNAc(b1-4)GlcNAc
# Outline: as §1
# [29] = target: Neu5Ac(a2-3)Gal(b1-3)GlcNAc(b1-2)Man(a1-3)[Neu5Ac(a2-3)Gal(b1-3)GlcNAc(b1-2)Man(a1-6)]Man(b1-4)GlcNAc(b1-4)GlcNAc
# Outline: as §1
# [30] = target: Neu5Ac(a2-3)Gal(b1-3)GlcNAc(b1-2)[Neu5Ac(a2-3)Gal(b1-3)GlcNAc(b1-4)]Man(a1-6)[Neu5Ac(a2-3)Gal(b1-3)GlcNAc(b1-2)Man(a1-3)]Man(b1-4)GlcNAc(b1-4)GlcNAc
# Outline: as §1
# [31] = target: Neu5Ac(a2-3)Gal(b1-3)GlcNAc(b1-3)Gal(b1-3)GlcNAc
# Outline: as §1
# [32] = target: Neu5Ac(a2-3)Gal(b1-3)GlcNAc(b1-3)Gal(b1-4)GlcNAc
# Outline: as §1
# [33] = target: Neu5Ac(a2-3)Gal(b1-3)GlcNAc(b1-3)GalNAc
# Outline: as §1
binder,measurement,setting,value
B1,glycan array binding signal (z-score),[1],0.165
same,glycan array binding signal (z-score),[2],-1.45
same,glycan array binding signal (z-score),[3],-0.003
same,glycan array binding signal (z-score),[4],1.43
same,glycan array binding signal (z-score),GlcNAc(b1-6)GalNAc,-0.628
same,glycan array binding signal (z-score),[5],-0.424
same,glycan array binding signal (z-score),Kdn(a2-3)Gal(b1-3)GalNAc,1.83
same,glycan array binding signal (z-score),Kdn(a2-3)Gal(b1-3)GlcNAc,-0.939
same,glycan array binding signal (z-score),Kdn(a2-3)Gal(b1-4)Glc,1.15
same,glycan array binding signal (z-score),Kdn(a2-3)Gal(b1-4)GlcNAc,0.685
same,glycan array binding signal (z-score),[6],-1.1
same,glycan array binding signal (z-score),Kdn(a2-6)Gal(b1-4)GlcNAc,0.109
same,glycan array binding signal (z-score),[7],0.403
same,glycan array binding signal (z-score),[8],1.11
same,glycan array binding signal (z-score),Man(a1-2)Man(a1-3)Man,-0.769
same,glycan array binding signal (z-score),[9],-0.303
same,glycan array binding signal (z-score),[10],0.373
same,glycan array binding signal (z-score),[11],-0.87
same,glycan array binding signal (z-score),[12],-0.971
same,glycan array binding signal (z-score),[13],-0.113
same,glycan array binding signal (z-score),[14],0.148
same,glycan array binding signal (z-score),Man(a1-3)[Man(a1-6)]Man,0.695
same,glycan array binding signal (z-score),[15],0.309
same,glycan array binding signal (z-score),[16],1.62
same,glycan array binding signal (z-score),[17],-0.914
same,glycan array binding signal (z-score),[18],-0.514
same,glycan array binding signal (z-score),[19],1.72
same,glycan array binding signal (z-score),Man(a1-6)Man,-0.548
same,glycan array binding signal (z-score),Man(b1-4)GlcNAc,-1.25
same,glycan array binding signal (z-score),MurNAc(b1-4)GlcNAc,-0.194
same,glycan array binding signal (z-score),Neu5Ac(a2-3)Gal,0.009
same,glycan array binding signal (z-score),[20],-0.963
same,glycan array binding signal (z-score),[21],0.195
same,glycan array binding signal (z-score),[22],0.6
same,glycan array binding signal (z-score),[23],-0.299
same,glycan array binding signal (z-score),[24],-0.349
same,glycan array binding signal (z-score),[25],-0.772
same,glycan array binding signal (z-score),[26],-0.487
same,glycan array binding signal (z-score),[27],-0.6
same,glycan array binding signal (z-score),[28],-1.25
same,glycan array binding signal (z-score),[29],-0.621
same,glycan array binding signal (z-score),[30],0.972
same,glycan array binding signal (z-score),[31],2.55
same,glycan array binding signal (z-score),[32],-1.02
same,glycan array binding signal (z-score),[33],-0.617

# Reprinted from the listing for reference:
binder,measurement,setting,value
B1,glycan array binding signal (z-score),Man(a1-6)Man,-0.548
same,glycan array binding signal (z-score),Man(b1-4)GlcNAc,-1.25
same,glycan array binding signal (z-score),MurNAc(b1-4)GlcNAc,-0.194
same,glycan array binding signal (z-score),Neu5Ac(a2-3)Gal,0.009
same,glycan array binding signal (z-score),[20],-0.963
same,glycan array binding signal (z-score),[21],0.195
same,glycan array binding signal (z-score),[22],0.6
same,glycan array binding signal (z-score),[23],-0.299
same,glycan array binding signal (z-score),[24],-0.349
same,glycan array binding signal (z-score),[25],-0.772
same,glycan array binding signal (z-score),[26],-0.487
same,glycan array binding signal (z-score),[27],-0.6
same,glycan array binding signal (z-score),[28],-1.25
same,glycan array binding signal (z-score),[29],-0.621
